{"source": "PubChem BioAssay AID720505 | Drosophila RNAi Screening Center, 2013", "assay": "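Genes needed for store-operated calcium entry in fly cells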 (primary screen)", "cells": "Drosophila S2R+ cells", "reagent": "long dsRNA against Drosophila genes", "conditions": "thapsigargin (2 µM) in calcium-free buffer to empty internal stores, then 2 mM calcium added back", "measurement": "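Fluo-4 signal in 384-well plates read on a FLIPR after thapsigargin (2 µM, calcium-free) store depletion and 2 mM calcium add-back; unnormalised mean endpoint per well; screen run twice, selected wells retested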", "reading the numbers": "calcium signal and retest calcium signal: higher = more calcium entry after store depletion", "hit rule": "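About 1500 genes called as lowering calcium entry, by varying amounts, judged against per-plate control wells with STIM1 as positive and Rho1 as negative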", "meaning of the calls": "active = called as lowering calcium entry; inactive = not called", "note": "The screen tested about 20,000 reagents; below is a random part of those with a known target gene and a result. In the full data, about 2,100 (10%) got an active call. 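Raw plate signals without normalisation; calls rest on control-based scores that were not deposited; replicate 2 separates called from uncalled poorly.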 A number with no mark means an inactive call. Reagent sequences are not shown. The record does not give: the amount of reagent, the time to read-out."}
{"Target gene": "pita", "amplicon": "DRSC04006", "calcium signal, replicate 1": 73.2, "calcium signal, replicate 2": 85.9}
{"Target gene": "pita", "amplicon": "DRSC04435", "calcium signal, replicate 1": 159, "calcium signal, replicate 2": 83.3}
{"Target gene": "CG11291", "amplicon": "DRSC04097", "calcium signal, replicate 1": 56.5, "calcium signal, replicate 2": 241}
{"Target gene": "CG9760", "amplicon": "DRSC11101", "calcium signal, replicate 1": "48.9 (active)", "calcium signal, replicate 2": 72.5}
{"Target gene": "CG17249", "amplicon": "DRSC08517", "calcium signal, replicate 1": 127, "calcium signal, replicate 2": 145}
{"Target gene": "CAH14", "amplicon": "DRSC04234", "calcium signal, replicate 1": 178, "calcium signal, replicate 2": 91.5}
{"Target gene": "CAH14", "amplicon": "DRSC22160", "calcium signal, replicate 1": 91, "calcium signal, replicate 2": 198}
{"Target gene": "CG13385", "amplicon": "DRSC02259", "calcium signal, replicate 1": 182, "calcium signal, replicate 2": 132}
{"Target gene": "Obp22a", "amplicon": "DRSC00088", "calcium signal, replicate 1": 72.1, "calcium signal, replicate 2": 141}
{"Target gene": "Prosalpha3T", "amplicon": "DRSC15226", "calcium signal, replicate 1": 149, "calcium signal, replicate 2": 161}
{"Target gene": "CG11041", "amplicon": "DRSC06025", "calcium signal, replicate 1": 144, "calcium signal, replicate 2": 149}

Reprinted from above (2 entries):
{"Target gene": "CAH14", "amplicon": "DRSC22160", "calcium signal, replicate 1": 91, "calcium signal, replicate 2": 198}
{"Target gene": "CG13385", "amplicon": "DRSC02259", "calcium signal, replicate 1": 182, "calcium signal, replicate 2": 132}

More reagents follow:
{"Target gene": "CG15812", "amplicon": "DRSC08479", "calcium signal, replicate 1": "46.9 (active)", "calcium signal, replicate 2": 87.2}
{"Target gene": "CG6628", "amplicon": "DRSC10679", "calcium signal, replicate 1": 93.6, "calcium signal, replicate 2": 85.9}
{"Target gene": "Secp43", "amplicon": "DRSC00454", "calcium signal, replicate 1": 109, "calcium signal, replicate 2": 129}
{"Target gene": "Asph", "amplicon": "DRSC06783", "calcium signal, replicate 1": 122, "calcium signal, replicate 2": 128}
{"Target gene": "Asph", "amplicon": "DRSC07171", "calcium signal, replicate 1": 176, "calcium signal, replicate 2": 123}
{"Target gene": "IKKbeta", "amplicon": "DRSC16714", "calcium signal, replicate 1": 152, "calcium signal, replicate 2": 160}
{"Target gene": "CG31675", "amplicon": "DRSC01825", "calcium signal, replicate 1": 98.7, "calcium signal, replicate 2": 7741}
{"Target gene": "Muc11A", "amplicon": "DRSC19498", "calcium signal, replicate 1": 105, "calcium signal, replicate 2": 93.5, "retest calcium signal, replicate 1": 8945, "retest calcium signal, replicate 2": 109}
